Laboratory results as given in US20210395318A1.

Target: cynomolgus FAP (cynomolgus)
Assay: SPR

binding: binds
B1: DARPin Protein #5 (designed binder)
chain: GSDLGKKLLEAARAGQDDEVRELLKAGADVNAKDYFSHTPLHLAARNGHLKIVEVLLKAGADVNAKDFAGKTPLHLAAADGHLEIVEVLLKAGADVNAQDIFGKTPADIAADAGHEDIAEVLQKAAGSPTPTPTTPTPTPTTPTPTPTGSDLGKKLLEAARAGQDDEVRILLAAGADVNAKDVLGWTPLHLAAFEGHLEIVEVLLKAGADVNAKDKKGWTPLQLAARTGHLEIVEVLLKAGADVNAKDHIGATPLHLAAWQGHPEIVEVLLKAGADVNAQDKSGKTPADLAADAGHEDIAEVLQKAAGSPTPTPTTPTPTPTTPTPTPTGSDLGKKLLQAARAGQLDEVRELLKAGADVNAKDTWGFTPLHIAAESGHLEIVEVLLKAGADVNAKDVQGRTPLHIAAHSGHLEIVEVLLKAGADVNAKDFRGWTPLHLAAWSGHLEIVEILLKAGADVNAQDKSGKTPADLAARAGHQDIAEVLQKAAGSPTPTPTTPTPTPTTPTPTPTGSDLGKKLLQAARAGQLDEVRELLKAGADVNAKDTWGFTPLHIAAESGHLEIVEVLLKAGADVNAKDVQGRTPLHIAAHSGHLEIVEVLLKAGADVNAKDFRGWTPLHLAAWSGHLEIVEILLKAGADVNAQDKSGKTPADLAARAGHQDIAEVLQKAA

Results are given in words; binding and its absence hold for the method and conditions named. Binding calls can cover weak binding; strength is not graded here.
